From PMC12820212 come the findings set out here.

Chains of the proteins cited; added tags and fusions are not shown.
UniProt P17839: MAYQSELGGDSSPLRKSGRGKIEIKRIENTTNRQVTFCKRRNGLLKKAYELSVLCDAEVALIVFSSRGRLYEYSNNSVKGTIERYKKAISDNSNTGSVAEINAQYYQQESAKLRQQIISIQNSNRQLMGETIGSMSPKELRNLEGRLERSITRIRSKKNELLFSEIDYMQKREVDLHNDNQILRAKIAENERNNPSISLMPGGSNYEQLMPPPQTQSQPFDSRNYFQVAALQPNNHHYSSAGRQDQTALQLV
UniProt Q9C7G4: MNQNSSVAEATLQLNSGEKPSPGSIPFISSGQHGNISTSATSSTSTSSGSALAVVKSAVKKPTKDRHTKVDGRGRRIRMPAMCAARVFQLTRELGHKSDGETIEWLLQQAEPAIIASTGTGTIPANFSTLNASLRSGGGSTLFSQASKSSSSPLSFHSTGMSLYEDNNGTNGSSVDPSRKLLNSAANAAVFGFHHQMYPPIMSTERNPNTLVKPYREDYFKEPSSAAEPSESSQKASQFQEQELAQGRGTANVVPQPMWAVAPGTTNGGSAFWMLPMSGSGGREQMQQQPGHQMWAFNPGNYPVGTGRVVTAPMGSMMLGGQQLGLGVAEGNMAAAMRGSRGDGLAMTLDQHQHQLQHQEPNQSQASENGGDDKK

No constants are given. Whether binding was seen depends on the method and setting. In cells and extracts the contact can be indirect. A yes stands for co-enrichment or nearness to the bait. Other partners may have been found. Tags and fused reporters may be left off the sequences shown.

The target of this experiment is T1, SPOROCYTELESS/NOZZLE (SPL/NZZ)-GFP (A. thaliana) (UniProt O81836).
T1 sequence: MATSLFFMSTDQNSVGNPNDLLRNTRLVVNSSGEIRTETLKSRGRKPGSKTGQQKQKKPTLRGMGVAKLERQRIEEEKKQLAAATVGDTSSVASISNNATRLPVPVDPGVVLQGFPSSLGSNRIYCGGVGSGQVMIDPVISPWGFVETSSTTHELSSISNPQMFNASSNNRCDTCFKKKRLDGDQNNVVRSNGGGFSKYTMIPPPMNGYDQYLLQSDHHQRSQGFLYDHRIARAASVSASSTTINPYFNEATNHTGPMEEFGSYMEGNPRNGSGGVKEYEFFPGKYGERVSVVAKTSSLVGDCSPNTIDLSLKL
Kind of experiment: affinity purification with mass spectrometry; Co-IP/MS: SPL/NZZ-GFP immunoprecipitated with the GFP antibody (µMACS GFP Isolation Kit) from nuclear extracts of unfixed SPL/NZZ:GFP AP1:GR ap1cal inflorescences at 9 DAI; three biological replicates; input as control; log2 intensity difference > 0, FDR ≤ 0.05.
Turning to “AGAMOUS (AG), endogenous (from UniProt P17839 1-252)”, the binding result was “binds”.
On to TCP22 (from UniProt Q9C7G4 1-375), for which the binding entry was “binds”.
For the substance …1 (SEP1) (from UniProt P29382 1-251), the binding result is on record as “binds”.
Take …2 (SEP2) (from UniProt P29384 1-250): the binding result is on record as “binds”.
Regarding “…3 (SEP3), endogenous (from UniProt O22456 1-251)”, the binding result was “binds”.
On to “… (STK), endogenous (from UniProt Q38836 1-230)”, for which the binding entry is given as “binds”.
As for “…OOF2 (SHP2) (from UniProt P29385 1-246)”, the binding entry is “binds”.
